Assay results as given in PubChem BioAssay AID493014 (National Center for Advancing Translational Sciences (NCATS), 2011).
The list shows a part of the results. Shown are side measurements of this screen, not its main read-out; they come without a call. The list favours compounds with an active or inconclusive main result. Potencies come from curve fits of mixed quality, noted in brackets.

Assay: qHTS Assay to Find Inhibitors of Chronic Active B-Cell Receptor Signaling
Settings: ABC-DLBCL IkBa-CBG/CBR reporter, luminescence ratio (green luciferase fused to IkBa over red control in TMD8 lymphoma cells), 4 h
Method in brief: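 Cell line TMD8 (human ABC DLBCL), stably expressing tet-inducible CBG68-IkBa fusion and CBR; IMDM/0.5% FBS; cpd up to 46 uM; dox induction, 4 h, 37C/5% CO2; dual luminescence; green/red ratio; MG132 control.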

[1] = measured here: CBR red luminescence, cell number
[2] = measured here: IkBa-CBG green luminescence

Structure (SMILES) | AC50 [1] | AC50 [2]
N#Cc1c(-c2ccccc2)cc(C2CC2)nc1N | 12.6 µM [rising, partial curve] | 15.8 µM [falling, partial curve, poor fit]
Cc1c(-c2nc(-c3cccnc3)no2)cccc1[N+](=O)[O-] | 7.94 µM [rising, partial curve, poor fit] | –
NC(=O)[C@@H]1CC2(CC(c3cccc(NC(=O)CC(c4ccccc4)c4ccccc4)c3)=NO2)CN1C(=O)c1ccc(Cl)cc1 (some centres undefined) | – | 14.1 µM [rising, partial curve, poor fit]
O=C(/C=C/c1ccco1)Nc1ccc(F)cc1 | 5.8 µM [falling, partial curve] | –
Nc1nc(COC(=O)CCC(=O)c2ccc(Cl)cc2)nc(Nc2ccccc2)n1 | 29.1 µM [falling, single point] | –
COc1ccccc1NC(=O)Nc1ccc2c(c1)nc(C)n2C | 7.94 µM [falling, partial curve] | –
CCN(CC(=O)Nc1c(F)cccc1F)C(=O)c1ccc(COc2ccccc2)o1 | 20.6 µM [rising, single point] | –
Cc1ccc(NC(=O)CN2CCN(CCN=CC3=C(O)CC(C)(C)CC3=O)CC2)cc1 | 12.6 µM [falling, partial curve, poor fit] | –
CCC(C)NCCOc1ccc(C(C)(C)c2ccccc2)cc1 (centres undefined) | 17.8 µM [falling, single point] | –
O=c1c2c(nc3cc(-c4ccccc4Cl)[nH]n13)CCS2 | 0.562 µM [falling, full curve] | –
O=[N+]([O-])c1ccc(C2=Nc3cc(Cl)ccc3OC2)cc1 | 0.355 µM [rising, full curve, poor fit] | –
C=C(CC)C(=O)c1ccc(OCC(=O)O)c(Cl)c1Cl | 12.6 µM [falling, partial curve] | 7.94 µM [rising, partial curve, poor fit]
COC(=O)c1cc(OC)c(OC)cc1NC(=O)CCCCCN1C(=O)CCC1=O | 6.51 µM [falling, single point] | –
CCOc1ccc2nc(N3CCN(C(=O)c4ccc(S(=O)(=O)CC)cc4)CC3)sc2c1 | 7.94 µM [falling, partial curve] | –
C=C(C)Cc1c(C)c(C#N)c2nc3ccccc3n2c1N1CCCCC1 | 18.4 µM [rising, single point] | –
O=C(N/N=C/c1c[nH]c2ccccc12)c1cccs1 | 11.2 µM [falling, partial curve, poor fit] | –
CC(=O)COc1ncn(-c2ccccc2)n1 | 35.5 µM [rising, single point] | –
COc1ccc(/C=N/NC(=O)c2nonc2C)cc1 | 5.8 µM [falling, partial curve] | 29.1 µM [rising, partial curve, poor fit]
Cc1nc2cc(-n3ccc(=O)cc3)ccc2n1-c1ccccc1 | 1.84 µM [falling, full curve, poor fit] | –
CC(C)(CO)Nc1nc(Cl)nc(NC2CCCCC2)n1 | 3.55 µM [falling, partial curve] | –

Structure (SMILES) | AC50 [1] | AC50 [2]
CC(=O)Nc1ccc(S(=O)(=O)N(C)c2ccc(OCC(=O)OCC(=O)Nc3ccc(OC(F)F)cc3)cc2)cc1 | 12.6 µM [rising, single point] | –
Cc1cc(C)c(NC(=O)CSc2nc3ccccc3c3nc(CCn4cncc4C)nn23)c(C)c1 | 35.5 µM [rising, single point] | –
CCS(=O)(=O)c1ccc2c(c1)N(S(=O)(=O)c1ccccc1)CC(C(=O)O)O2 (centres undefined) | 3.98 µM [falling, single point] | –
COc1ccccc1Nc1nc(C)cc(C)n1 | 12.6 µM [rising, partial curve, poor fit] | –
CC(/C=C/c1ccco1)=N/NC(=O)c1ccccc1Cl | 12.6 µM [falling, partial curve, poor fit] | –
CCOc1ccc(CN(C(=O)c2ccccn2)c2ccc(OC)c(Cl)c2)cc1 | 0.316 µM [rising, full curve, poor fit] | –
O=C(N/N=C\c1ccc(-c2ccccc2[N+](=O)[O-])o1)C1COc2ccccc2O1 (centres undefined) | 25.9 µM [falling, single point] | –
CCC(=O)Nc1nnc(S(=O)(=O)N(CC)c2ccc(OC)cc2)s1 | 35.5 µM [rising, single point] | –
O=C(Nc1cccc2ccccc12)NC1CCCc2ccccc21 (centres undefined) | 29.1 µM [rising, single point] | –
CSc1ccccc1NC(=O)CN(C)C(=O)CCc1c[nH]c2ccccc12 | 7.08 µM [falling, partial curve, poor fit] | –
COC(=O)C1=C(C)NC(C)=C(C(=O)OC)C1C(=O)OCC(=O)c1ccc(F)cc1 | 2.24 µM [rising, partial curve, poor fit] | –
O=C(NC1CCCCC1)c1cc([N+](=O)[O-])[nH]n1 | 14.6 µM [falling, partial curve] | –
CCC(C)NC(=O)c1ccccc1NC(=O)c1ccc(CSc2ccccc2)cc1 (centres undefined) | 3.26 µM [rising, full curve, poor fit] | 4.61 µM [falling, partial curve, poor fit]
NC(=O)c1ccsc1NC(=O)COC(=O)c1cc(Cl)ccc1O | 5.8 µM [falling, full curve, poor fit] | –
CCCC1CCC(c2ccc(/C(N)=N/O)cc2)CC1 (centres undefined) | 3.55 µM [rising, full curve] | –
c1ccc2c(NCCCN3CCOCC3)c3ccccc3nc2c1 | 8.91 µM [falling, partial curve] | –
COc1cccc2cc(C(C)=O)c(=O)oc12 | 16.4 µM [falling, partial curve] | –
CCN(CC)C(=O)Nc1ccc(Br)cc1 | 12.6 µM [rising, single point] | –
CCC(Sc1nncn1C)C(=O)Nc1nnc(-c2ccccc2Cl)s1 (centres undefined) | 32.6 µM [rising, partial curve, poor fit] | –
CC(NC(=O)CNC(=S)N(Cc1cccs1)C1CCCC1)c1ccccc1 (centres undefined) | 12.6 µM [falling, single point] | –

For convenience, 2 of the compounds above:
Structure (SMILES) | AC50 [1] | AC50 [2]
CCC(Sc1nncn1C)C(=O)Nc1nnc(-c2ccccc2Cl)s1 (centres undefined) | 32.6 µM [rising, partial curve, poor fit] | –
CC(NC(=O)CNC(=S)N(Cc1cccs1)C1CCCC1)c1ccccc1 (centres undefined) | 12.6 µM [falling, single point] | –
